This experiment concerns BDF1 mice, P388 leukemia ip, median survival T/C. The experiment is described as follows: NCI In Vivo Anticancer Drug Screen. Data for tumor model P388 Leukemia (intraperitoneal) in B6D2F1 (BDF1) mice. To be noted: T/C endpoint: median survival time, higher T/C = longer survival. The essentials:
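Survival ratio, drug arm over vehicle arm, in mice with a transplanted tumour.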

Setting [1] is: dose: 50.0 mg/kg/injection, schedule: Q01DX005 (ip), vehicle: saline with Tween-80.
Setting [2] is: dose: 50.0 mg/kg/injection, schedule: Q01DX009 (ip), vehicle: saline with Tween-80.
Where [3] appears, read: dose: 50.0 mg/kg/injection, schedule: Q04DX002 (ip), vehicle: saline with Tween-80.
Where [4] appears, read: dose: 50.0 mg/kg/injection, schedule: Q04DX003 (ip), vehicle: saline with Tween-80.
Setting [5] is: dose: 100.0 mg/kg/injection, schedule: Q01DX001 (ip), vehicle: saline with Tween-80.
Setting [6] is: dose: 100.0 mg/kg/injection, schedule: Q01DX005 (ip), vehicle: saline with Tween-80.
Where [7] appears, read: dose: 100.0 mg/kg/injection, schedule: Q01DX009 (ip), vehicle: saline with Tween-80.
Where [8] appears, read: dose: 100.0 mg/kg/injection, schedule: Q04DX002 (ip), vehicle: saline with Tween-80.
[9] abbreviates: dose: 100.0 mg/kg/injection, schedule: Q04DX003 (ip), vehicle: saline with Tween-80.
Where [10] appears, read: dose: 200.0 mg/kg/injection, schedule: Q01DX001 (ip), vehicle: saline with Tween-80.
[11] abbreviates: dose: 200.0 mg/kg/injection, schedule: Q01DX005 (ip), vehicle: saline with Tween-80.
Where [12] appears, read: dose: 200.0 mg/kg/injection, schedule: Q01DX009 (ip), vehicle: saline with Tween-80.
The mark [13] stands for this setting: dose: 200.0 mg/kg/injection, schedule: Q04DX002 (ip), vehicle: saline with Tween-80.
Where [14] appears, read: dose: 200.0 mg/kg/injection, schedule: Q04DX003 (ip), vehicle: saline with Tween-80.
The mark [15] stands for this setting: dose: 400.0 mg/kg/injection, schedule: Q01DX001 (ip), vehicle: saline with Tween-80.
Where [16] appears, read: dose: 400.0 mg/kg/injection, schedule: Q01DX005 (ip), vehicle: saline with Tween-80.
Where [17] appears, read: dose: 400.0 mg/kg/injection, schedule: Q01DX009 (ip), vehicle: saline with Tween-80.
Setting [18] is: dose: 400.0 mg/kg/injection, schedule: Q04DX002 (ip), vehicle: saline with Tween-80.
[19] abbreviates: dose: 400.0 mg/kg/injection, schedule: Q04DX003 (ip), vehicle: saline with Tween-80.

The list is a part of this screen's results and no random one: it is rich in T/C values a quarter to a half above the control, in often repeated tests (any T/C) and in doses without a T/C. Further doses and runs are listed elsewhere. T/C gives the treated animals as a percentage of the vehicle group. Some entries give survivors of the animals treated and no T/C: the source holds a T/C of zero for them, seemingly a mark for toxic or unscored doses. Some survivor counts are full or nearly so, which does not show that the dose was tolerated: the source hardly ever lists a survival T/C far under the control, and the zero likely stands for such cases as well. Survivors were counted at the toxicity check, usually on the fifth day, unless a day is given; later deaths do not show. Schedule codes are those of the source, taken here to give the interval after Q, in days (D) or hours (H), and the number of doses after X. Some entries hold several experiments; the values are given in rising order. Where survival is the endpoint, this PubChem deposit counts one and a half times the control or more as active, and values a quarter to a half above the control carry no call in these data; other NCI protocols may use other cut-offs. Some T/C values are followed by the survivors on the day toxicity was checked, most often the fifth; where none is given, no animal had died by that day. Signs of the kind (2×) stand for listed records that agree.

Turning to `CC/C(=C(/CC)c1ccc(O)cc1)c1ccc(O)cc1`, the survivor count is 6 of 6 (dose: 25.0 mg/kg/injection, schedule: Q01DX010 (ip), vehicle: saline); 3 of 3 under setting [1]; 7 of 10 (dose: 50.0 mg/kg/injection, schedule: Q01DX009 (ip), vehicle: carboxymethylcellulose (CMC)); 3 of 3 under setting [2]; 3 of 3 and 6 of 6 under setting [3]; 3 of 3 and 6 of 6 under setting [4]. Moreover, the survivor count was 6 of 6 under setting [5]; 6 of 6 under setting [6]; 3 of 3 and 6 of 6 under setting [7]; 1 of 3 and 6 of 6 under setting [8]; 3 of 3 and 6 of 6 under setting [9]; 5 of 6 under setting [10]. In addition, the survivor count was 3 of 6, 4 of 6, 3 of 3 under setting [11]; 4 of 6 and 3 of 3 under setting [12]; 3 of 3 and 6 of 6 under setting [13]; 3 of 3 and 6 of 6 under setting [14]; 1 of 6, 1 of 3, 2 of 6, 5 of 6 under setting [15]; 0 of 3, 0 of 6, 1 of 6, 1 of 3, 3 of 6, 2 of 3 under setting [16]. The survivor count (dose: 400.0 mg/kg/injection, schedule: Q01DX009 (ip), vehicle: carboxymethylcellulose (CMC)) is on record as 10 of 10; the survivor count under setting [17] is 0 of 3, 0 of 6, 1 of 6, 1 of 3, 2 of 6, 3 of 6, 2 of 3, 4 of 6, 5 of 6, 3 of 3, 6 of 6; the survivor count under setting [18] was 0 of 3, 0 of 6, 1 of 3, 3 of 6, 2 of 3, 4 of 6, 5 of 6, 6 of 6; the survivor count under setting [19] is listed as 0 of 3, 1 of 3, 2 of 6, 3 of 6, 2 of 3, 3 of 3, 6 of 6. The T/C reads like this: (dose: 50.0 mg/kg/injection, schedule: Q01DX001 (ip), vehicle: saline with Tween-80) 87, 88, 89, 90, 91, 92 (2×), 94, 95 (2×), 96 (3×), 97, 99, 100 (2×), 102 (2×), 103, 104 (2×), 105, 106, 106 [5 of 6 alive], 109, 110, 120 % of control; under setting [1], 88 [5 of 6 alive], 89 [2 of 2 alive], 90, 97 (2×), 98 (2×), 99 (2×), 100, 101 (2×), 102, 103 (2×), 105 (2×), 106, 107 (3×), 108 (2×), 109, 110, 113 (2×), 115, 119 (2×), 120, 125, 128, 132 % of control; under setting [2], 87, 88, 92, 93, 93 [5 of 6 alive], 94, 97 (3×), 97 [5 of 6 alive], 99 [2 of 3 alive], 100, 101 (2×), 102, 103, 104, 105, 106 (2×), 107, 109, 110 (2×), 111, 115 (3×), 123 (2×), 124, 131 % of control; under setting [3], 87 (2×), 88, 91 (3×), 94, 95, 96 (2×), 97 (2×), 98, 100 (2×), 100 [5 of 6 alive], 101, 102 (2×), 103 (2×), 106 (3×), 107, 108, 109 (2×), 113, 115, 116 % of control; under setting [4], 87, 90 (2×), 91 (2×), 94 (2×), 95, 96 (3×), 98 (2×), 99, 100 (2×), 101 (3×), 102 (2×), 103 (2×), 104, 105, 106 (2×), 108, 109, 111, 115, 118, 121 % of control; under setting [5], 87, 89, 90, 90 [5 of 6 alive], 91 (4×), 92, 93, 94 (2×), 96, 97, 98, 100, 101 (4×), 102, 103, 104, 105, 107, 109 % of control. Also, the T/C was 89, 90, 93 (2×), 95 (2×), 97 (2×), 99 (2×), 100, 102, 103 (2×), 106, 107 (2×), 108, 109 [5 of 6 alive], 110 (3×), 111, 112, 114 (3×), 115 (2×), 117, 119, 123 (2×), 125 % of control under setting [6]; 87, 89, 94, 94 [5 of 6 alive], 95 (2×), 97, 99 (2×), 100 (2×), 100 [5 of 6 alive], 101, 103, 104 [5 of 6 alive], 106 (3×), 108, 110, 111, 112, 113, 118, 121, 122, 123 (2×), 128, 131 (2×), 134 % of control under setting [7]; 87 (2×), 89, 91 (3×), 94 (2×), 95, 96, 97, 98, 100 (5×), 101 (2×), 102, 103, 106 (2×), 108, 109, 112 (3×), 119, 121, 125, 130 % of control under setting [8]; 87, 88 (2×), 92 (2×), 93 (2×), 94, 95, 96 (2×), 98 (2×), 99 (2×), 100 (2×), 101 (2×), 103 (2×), 104, 105 (4×), 108 (2×), 109, 110, 110 [5 of 6 alive], 111, 115, 118 % of control under setting [9]; 90, 91 (3×), 92, 92 [5 of 6 alive], 93, 94, 96, 97 (2×), 99, 101 (2×), 102, 103, 104, 105, 106, 107, 108 (2×), 110 [5 of 6 alive], 111, 116 (2×), 120 % of control under setting [10]; 92, 94 (2×), 95, 97, 98 (4×), 99 [2 of 3 alive], 99 [5 of 6 alive], 100 (2×), 103 (2×), 105, 107, 108 (2×), 109 (2×), 110, 111, 115 [4 of 5 alive], 115 [5 of 6 alive], 119, 119 [5 of 6 alive], 121, 123, 128 [2 of 3 alive], 134, 146 % of control under setting [11]. The T/C reads like this: under setting [12], 88 (2×), 90 [2 of 3 alive], 90 [5 of 6 alive], 94 (2×), 95 (2×), 97, 99, 101 (2×), 102, 105, 106, 106 [2 of 3 alive], 106 [5 of 6 alive], 109, 110 [5 of 6 alive], 111, 112 [5 of 6 alive], 113, 114, 117, 119 (2×), 121, 122 [5 of 6 alive], 123, 126 [5 of 6 alive], 131, 131 % of control [5 of 6 alive]; under setting [13], 87 (2×), 90, 91 [5 of 6 alive], 92, 93, 94 (2×), 94 [5 of 6 alive], 96, 97 (3×), 98 (2×), 99, 100, 100 [5 of 6 alive], 103 (2×), 106, 108, 109, 111, 112 (2×), 115 (2×), 118, 119, 122, 122 % of control [5 of 6 alive]; under setting [14], 86, 87, 90, 90 [5 of 6 alive], 91, 94, 95, 96, 97, 98 (2×), 99 (3×), 100 (2×), 103 (2×), 104, 105 (2×), 105 [5 of 6 alive], 106, 107 [5 of 6 alive], 109, 109 [5 of 6 alive], 112, 121 (2×), 123, 125 % of control; under setting [15], 87 [5 of 6 alive], 88, 89, 91 (2×), 92, 95 (2×), 95 [4 of 6 alive], 96, 100 (2×), 100 [5 of 6 alive], 101, 101 [5 of 6 alive], 102 [2 of 3 alive], 102 [5 of 6 alive] (2×), 103, 106, 108 [4 of 6 alive], 110 [2 of 3 alive], 117 % of control; under setting [16], 91, 96 [4 of 6 alive], 98 [5 of 6 alive], 99, 100, 100 [4 of 6 alive], 100 [5 of 6 alive], 103 [5 of 6 alive], 104, 106, 109 [4 of 6 alive], 113, 114 [4 of 6 alive], 115 [5 of 6 alive], 116 [2 of 3 alive] (2×), 118 [5 of 6 alive], 119 [5 of 6 alive], 120 [2 of 3 alive], 131 % of control; (dose: 400.0 mg/kg/injection, schedule: Q01DX008 (ip), vehicle: saline with Tween-80) 138 % of control [2 of 3 alive]. The T/C is 95, 97 [4 of 6 alive], 98 [2 of 3 alive], 99, 99 [4 of 6 alive], 106 [2 of 3 alive], 108, 113, 114, 135 % of control [4 of 6 alive] under setting [17]; 88 [4 of 6 alive], 94, 100 [5 of 6 alive], 102 [2 of 3 alive], 103 [4 of 6 alive], 103 [5 of 6 alive], 104, 105, 106, 107 (2×), 108, 109 (2×), 109 [2 of 3 alive], 111, 118 [5 of 6 alive], 119, 119 [5 of 6 alive], 122 [4 of 6 alive], 125 % of control [2 of 3 alive] under setting [18]; 91 (2×), 92 [5 of 6 alive], 94, 94 [5 of 6 alive] (2×), 99, 100 (3×), 100 [5 of 6 alive], 102, 103, 104 (2×), 105, 107, 110, 114, 125, 135 % of control under setting [19].

Regarding `C(=Nc1ccc(/C=C\c2ccnc3ccccc23)cc1)Nc1ccc(/C=C\c2ccnc3ccccc23)cc1`, the survivor count is reported as 5 of 6 under setting [2] and 6 of 6 under setting [7].

Values taken from PubChem BioAssay AID328 (DTP/NCI, 2004).
